The campaign covered roughly 1,400 compounds. About 45 (3%) were called active.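 The calls were made as follows: active = half-maximal dose of signal decrease from fit no higher than ten times the top valid tested dose; inconclusive = fit invalid, or curve flat with 30 to 70% inhibition; inactive = the rest.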 This is one part of the list. Potency and affinity values are given separately.
molecular target: Lysine-specific demethylase 4A (Homo sapiens) (UniProt O75164); assay: JMJD2A histone demethylase inhibitors, dose response, selectivity assay for GASC-1 inhibitor project, biochemical, DELFIA europium, cherry-picked samples (AID 488840); conditions: GST-JMJD2A(1-420) H3K9me3 demethylation; at 6 µM (top of the series) unless noted;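 also: europium signal reports the dimethyl H3K9 product detected by antibody so inhibitors lower it; 0% = median of neutral control wells and -100% = median of positive control wells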

Chains of the proteins cited; added tags and fusions are not shown. Lines headed by an entry give the natural chain unless they say otherwise; changes in a name come on top.
UniProt O75164: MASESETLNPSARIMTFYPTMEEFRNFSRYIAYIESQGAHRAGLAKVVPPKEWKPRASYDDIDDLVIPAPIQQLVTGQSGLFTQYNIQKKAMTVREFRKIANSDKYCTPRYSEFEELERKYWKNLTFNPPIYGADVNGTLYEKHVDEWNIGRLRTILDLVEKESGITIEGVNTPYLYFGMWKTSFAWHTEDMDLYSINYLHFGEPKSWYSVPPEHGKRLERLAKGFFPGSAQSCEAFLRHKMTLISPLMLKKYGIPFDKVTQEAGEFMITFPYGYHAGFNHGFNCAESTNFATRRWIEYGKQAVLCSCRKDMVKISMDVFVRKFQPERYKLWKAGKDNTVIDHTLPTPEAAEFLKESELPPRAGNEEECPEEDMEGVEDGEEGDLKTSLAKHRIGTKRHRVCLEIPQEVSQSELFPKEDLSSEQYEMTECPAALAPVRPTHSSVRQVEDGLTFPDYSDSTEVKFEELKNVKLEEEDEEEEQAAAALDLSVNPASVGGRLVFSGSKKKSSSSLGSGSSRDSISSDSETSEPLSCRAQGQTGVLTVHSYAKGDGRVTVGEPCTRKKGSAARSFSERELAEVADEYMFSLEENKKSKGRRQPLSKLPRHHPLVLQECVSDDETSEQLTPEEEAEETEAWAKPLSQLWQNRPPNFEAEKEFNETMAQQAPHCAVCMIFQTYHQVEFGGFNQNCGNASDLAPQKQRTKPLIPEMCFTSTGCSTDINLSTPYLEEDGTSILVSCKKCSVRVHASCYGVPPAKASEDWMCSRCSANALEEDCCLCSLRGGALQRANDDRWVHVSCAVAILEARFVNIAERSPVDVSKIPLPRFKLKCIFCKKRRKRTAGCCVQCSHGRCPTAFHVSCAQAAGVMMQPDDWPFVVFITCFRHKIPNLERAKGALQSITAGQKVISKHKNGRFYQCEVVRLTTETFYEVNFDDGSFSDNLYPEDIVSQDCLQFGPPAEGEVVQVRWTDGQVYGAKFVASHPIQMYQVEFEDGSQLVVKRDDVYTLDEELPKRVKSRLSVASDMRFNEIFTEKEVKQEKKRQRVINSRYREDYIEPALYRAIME

Activity change, negative = inhibition, inactive:
c1ccc(-c2nc(-c3ccco3)cs2)nc1 1.76%, OCc1ccc(OCCCOc2cccc3cccnc23)cc1 -5.38%, CC1=C(C#N)C(Nc2ccc(C)cn2)(C(F)(F)F)C(=O)N1 (configuration not stated) 1.89%, Nc1nn2c(-c3ccccc3)cc(=O)[nH]c2c1N=Nc1ccc(O)cc1 3.54%, Cc1nnc(SCc2nc3ccccc3[nH]2)s1 3.75%, COC(=O)C(Cc1ccccc1)NC(=O)COc1ccc(C(C)(C)C)cc1 (configuration not stated) 4.08%, CC1Oc2ccccc2N(Cc2ccccc2Cl)C1=O (configuration not stated) -1.07%, CC1C(=O)N(Cc2ccc([N+](=O)[O-])cc2)c2ccccc2N1C(=O)C1CC1 (configuration not stated) 1.19%, COCCCNC(=O)CC1C[C@H](C(=O)N2CCOCC2)[C@@]2(C)c3[nH]c4ccccc4c3CCN2C1=O (some centres not stated) 7.23%, COc1ccc(S(=O)(=O)N2CCC(C(=O)N3CCc4ccccc4C3)CC2)cc1 -0.742%, CC(=O)Nc1sc2c(c1CN1CCN(C)CC1)CCCC2 -1.49%, CCN(C[C@H]1N[C@@](Cc2ccccc2)(C(=O)OC)[C@H]2C(=O)N(C)C(=O)[C@@H]12)S(=O)(=O)c1ccccc1 -3.04%, CCN(Cc1cc2cc(OC)ccc2[nH]c1=O)C(=O)c1ccncc1 3.58%, COCCn1c(SCC(=O)Nc2cc(C(C)(C)C)nn2-c2ccccc2)nc2ccccc2c1=O -2.83%, O=C(C1CCN(S(=O)(=O)c2ccc3ccccc3c2)CC1)N1CCN(c2ncccn2)CC1 1.75%, N=c1n(CC(=O)c2cccc([N+](=O)[O-])c2)c2ccccc2n1Cc1ccccc1 1.29%, CCOC(=O)c1c(NC(=O)C2CCCO2)sc2c1CCC2 (configuration not stated) -2.91%, CC(CN1CCCC1)OC(=O)COc1ccccc1 (configuration not stated) 0.818%, COc1ccc2c(C(=O)NCCCCO)c(-c3ccc(S(C)(=O)=O)cc3)sc2c1 -2.45%, O=C(Nc1nncs1)c1ccc2c(c1)OCO2 -2.22%, COc1ccc(C(=O)NC2CC3CCCC(C2)N3Cc2ccccc2)cc1 (configuration not stated) -2.69%, CCCN(C(=O)Cc1ccc(S(=O)(=O)N2CCOCC2)s1)c1c(N)n(Cc2ccccc2)c(=O)[nH]c1=O 7.73%, CCOc1ccc(NC(=O)CN(C)CC(=O)Nc2cc(Cl)ccc2C#N)cc1OCC 3.1%, Cc1ccc(/C=N/NC(=O)c2ccc(C(=O)N/N=C/c3ccc(C)s3)o2)s1 2.44%, Cc1cc(-c2n[nH]c(=S)o2)c(C)n1-c1ccccc1 0.78%, Cn1c(/N=C/c2cc(Cl)ccc2O)nc2ccccc21 4.98%, CCOC(=O)CNC(=O)CNC(=O)c1ccc(OC)cc1 2.12%, O=C(NCCCn1ccnc1)c1cc2c(ccc3ccccc32)o1 4.32%, Cc1ccc(-n2c3nc(=O)[nH]c(=O)c-3cc3c(C)nn(-c4ccccc4)c32)c(C)c1 1.15%, CC1=NN(c2ccc(C)cc2C)C(=O)C1C(c1ccccc1)C1C(=O)N(c2ccc(C)cc2C)N=C1C (configuration not stated) -6.09%, N#Cc1cc(-c2ccccc2)nnc1Sc1ccccc1 -0.75%, C#CC[N+]1(CC#Cc2ccc(C#CC[N+]3(CC#C)CCOCC3)cc2)CCOCC1 -1.43%, COC(=O)[C@]1(C)N[C@H](CN(C)S(=O)(=O)c2ccc(F)cc2)[C@@H]2C(=O)N(C)C(=O)[C@@H]21 -2.49%, CCCCC(=O)NC(Nc1nc(C2CC2)cs1)(C(=O)OCC)C(F)(F)F (configuration not stated) -2.43%, O=[N+]([O-])c1ccccc1/C=C/C=N/n1c(-c2ccc(Cl)cc2)n[nH]c1=S 4.39%, Cc1ccc(S(=O)(=O)N(C)C[C@@H]2Oc3ccc(NC(=O)Cn4cnnn4)cc3C(=O)N([C@@H](C)CO)C[C@H]2C)cc1 8.93%, CCNc1oc(-c2cccc3ccccc23)nc1C#N 4.21%, CCCCn1c(N)c(N(CC)C(=O)c2ccco2)c(=O)[nH]c1=O 5.45%, CCCc1c(NC(=O)Nc2ccc(F)cc2)cnn1-c1ccccc1 0.307%, O=C(Nc1ccccc1)Nc1ccc(S(=O)(=O)N2CCCCC2)cc1 0.678%, Cc1cnc(NC(=O)c2ccc(-c3nc4ccccc4s3)o2)s1 1.03%, O=C(O)c1ccccc1OCCOc1ccccc1C(=O)O -3.99%, CCC/C(=N\NC(=O)c1csc(C)c1C)c1cccs1 7.79%, COc1ccc(CCNC(=O)COC(=O)c2ccc(Br)o2)cc1 -0.655%, Cc1cccc2cc(C#N)c(SCCN3CCCCC3)nc12 -1.34%, OC(COc1ccc2ccccc2c1Br)Cn1cnc(-c2ccccc2)c1 (configuration not stated) -1.19%, CCN(C[C@H]1N[C@@](C)(C(=O)OC)[C@H]2C(=O)N(Cc3ccccc3)C(=O)[C@@H]12)C(=O)Nc1ccc(F)cc1 7.96%, O=C(N1CCN(c2ccccc2)CC1)C12CC3CC(CC(C3)C1)C2 -4.71%, C[C@H](N)c1nnc(SCC(=O)N(C)C)o1 -0.346%, CC(OC(=O)CN1C(=O)COc2ccccc21)C(=O)NCc1ccc(F)cc1 (configuration not stated) 2.45%, N#CC1(NC(=O)Cn2ncc(Cl)c(Cl)c2=O)CCCCC1 0.808%, CCc1ccc(NC(=O)CSc2nnc(CNC(=O)c3c(F)cccc3Cl)o2)cc1 7.33%, COc1ccc2c(c1)OC[C@H]1[C@H]2N2C(=O)CNC(=O)[C@@]2(C)[C@H]1c1ccccc1 0.491%, C[C@@H]1CN([C@@H](C)CO)C(=O)c2cc(NC(=O)Nc3ccc4c(c3)OCO4)ccc2O[C@H]1CN(C)S(=O)(=O)c1ccc(F)cc1 -2.55%, CCOC(=O)CCCCCC(=O)Nc1ccc2c(c1)CC(=O)N([C@H](C)CO)C[C@@H](C)[C@H](CN(C)Cc1ccc3c(c1)OCO3)O2 2.36%, Cc1cc(C)c(OCC(=O)Nc2ccc(NC(=O)c3ccco3)cc2)c([N+](=O)[O-])c1 0.0706%, CCCc1nn2c(=O)cc(CSCC(=O)Nc3ccccc3)nc2s1 -2.93%, Cc1ccccc1NS(=O)(=O)c1ccc(C(=O)NCC(c2ccco2)N(C)C)cc1 (configuration not stated) -1.49%, O=[N+]([O-])c1cc(Cl)ccc1Nc1ccccc1 -4.84%, O=C1c2ccccc2C(=O)N1CCC(c1ccccc1)c1ccco1 (configuration not stated) -4.09%, Cc1ccc([N+](=O)[O-])cc1N=C(c1cccc([N+](=O)[O-])c1)N1CCOCC1 -0.442%, COC(=O)c1cc(OC)c(OC)cc1NC(=O)Cn1nnc(-c2ccccc2Cl)n1 -4.43%, CCCOC(=O)c1ccc(-c2ccc(C=O)o2)cc1 -1.74%, CS(=O)(=O)N(CCc1ccccc1)CC(=O)NCc1ccc(Cl)cc1 1.47%, C[C@H](CO)N1C[C@H](C)[C@H](CN(C)S(=O)(=O)c2ccccc2)Oc2c(NS(C)(=O)=O)cccc2C1=O 2.61%, Cc1ccc(S(=O)(=O)NC(=O)NC(C)Cc2ccccc2)cc1 (configuration not stated) -0.228%, CCN(Cc1nc(-c2ccccc2)no1)C(=O)c1ccco1 -0.912%, O=c1cc(-c2ccc(O)c(O)c2)oc2c(C3O[C@H](CO)[C@@H](O)[C@H](O)[C@H]3O)c(O)cc(O)c12 (some centres not stated) -24%, O=C(CSc1nc(O)c(Cc2ccccc2)c(=O)[nH]1)c1ccccc1 0.275%, COC(=O)c1c(-c2cccs2)csc1NC(=O)CN1CCOCC1 7.8%, CN(C)CCNC(=O)c1onc(CSc2ccncc2)c1C(=O)NCCN(C)C -1.39%, NC(=O)COC(=O)Cc1coc2cc3c(cc12)CCC3 -1.46%, CC1CN(Cc2ccccc2)c2nc3c(c(=O)n(C)c(=O)n3C)n2C1 (configuration not stated) -0.543%, COc1cc2cnncc2cc1OC 1.52%, C[C@H](CO)N1C[C@H](C)[C@@H](CN(C)CC2CCCCC2)Oc2c(NC(=O)C3CC3)cccc2C1=O 0.973%, O=C(N/N=C/c1ccccc1)c1c(O)c2ccccc2[nH]c1=O -1.81%, COc1cc(CN2CCN(C(=O)CC(C)C)CC2)cc(OC)c1OC 3%, COc1ccc(NC(=O)C2OC3OC(C)(C)OC3C3OC(C)(C)OC23)cc1 (configuration not stated) 3.01%, COc1ccc2c(c1)CC(C1(O)C(=O)N(C)c3ccccc31)C2=O (configuration not stated) 3.41%, COc1ccc(N2CCN(C(=O)CSc3nnc(-c4ccco4)n3C)CC2)cc1 3.12%, Cc1ccc(C(O)(C(=O)NNc2ccccn2)c2ccc(C)cc2)cc1 -2.22%, COc1ccc(N=c2ssnc2Cl)cc1 -4.28%, CC(=O)N1C(c2ccccc2O)C[C@]2(C)CC(=O)NC12 (some centres not stated) 1.27%, CC(SCc1ccccc1)C(=O)Nc1ccccc1 (configuration not stated) 0.0984%, C/C(=N\N1CCN(c2ccccc2)CC1)c1ccncc1 -3.29%, CC1=C(C(=O)OCC2CCCO2)C(c2ccccc2OC(C)C)C2=C(CC(c3ccco3)CC2=O)N1 (configuration not stated) 3.65%, Cc1ccc(S(=O)(=O)N2[C@@H](c3ccc(Br)cc3)C(C(=O)O)=CC[C@H]2c2cccc(Cl)c2)cc1 4.46%

Reference: PubChem BioAssay AID488840 (Broad Institute, 2010)
